Test results published in the supplement of paper PMC6078165.

System: Hs578T
Test: relative JC-1 red fluorescence (viability) vs pre-drug, coculture with fibroblast (fraction); higher = more viable cancer cells
Protocol: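 JC-1 labelled TNBC cells cocultured 1:1 (1,500 cells each) with CellTrace Violet stained primary or stromal fibroblasts in 384-well plates in FluoroBrite medium, treated with one of 42 anticancer drugs at 0.1, 1, 10 or 100 uM. JC-1 red fluorescence (mitochondrial integrity in cancer cells only) was read by plate reader every 8 h for 72 h. Values are normalised to each well's pre-drug value. The stock of one drug was tenfold lower, so its dose labels may be too high.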

COc1cc([C@@H]2c3cc4c(cc3[C@@H](O[C@@H]3O[C@@H]5CO[C@@H](c6cccs6)O[C@H]5[C@H](O)[C@H]3O)[C@H]3COC(=O)[C@H]23)OCO4)cc(OC)c1O [Teniposide]
relative JC-1 red fluorescence
Conditions | 8 h | 16 h | 24 h | 32 h | 40 h | 48 h | 56 h | 64 h | 72 h
0.1 µM | 0.89 | 0.807 | 0.763 | 0.729 | 0.671 | 0.633 | 0.6087 | 0.5717 | 0.5639
1 µM | 0.877 | 0.794 | 0.739 | 0.698 | 0.63 | 0.592 | 0.592 | 0.558 | 0.554

relative JC-1 red fluorescence
Conditions | 8 h | 16 h | 24 h | 32 h | 40 h | 48 h | 56 h | 64 h | 72 h
0.1 µM, coculture fibroblast: C12385 | 0.778 | 0.72113 | 0.698 | 0.617 | 0.567 | 0.54 | 0.515 | 0.504 | 0.506
0.1 µM, coculture fibroblast: H6013 | 0.843 | 0.8075 | 0.765 | 0.739 | 0.702 | 0.682 | 0.659 | 0.652 | 0.626
0.1 µM, coculture fibroblast: H6019 | 0.792 | 0.759 | 0.801 | 0.711 | 0.706 | 0.702 | 0.684 | 0.681 | 0.659
0.1 µM, coculture fibroblast: H6076 | 0.88 | 0.812 | 0.801 | 0.7827 | 0.7399 | 0.742 | 0.743 | 0.75 | 0.757
0.1 µM, coculture fibroblast: H6231 | 0.88 | 0.786 | 0.737 | 0.701 | 0.638 | 0.613 | 0.57 | 0.553 | 0.558
0.1 µM, coculture fibroblast: HADF | 0.8365 | 0.7884 | 0.7343 | 0.677 | 0.645 | 0.616 | 0.589 | 0.59 | 0.574
0.1 µM, coculture fibroblast: HCFa | 0.8301 | 0.771 | 0.713 | 0.658 | 0.591 | 0.57 | 0.535 | 0.525 | 0.4978
0.1 µM, coculture fibroblast: HCPF | 0.902 | 0.816 | 0.765 | 0.735 | 0.66 | 0.635 | 0.6001 | 0.56992 | 0.553
0.1 µM, coculture fibroblast: HHSteC | 0.844 | 0.7695 | 0.717 | 0.667 | 0.607 | 0.574 | 0.551 | 0.537 | 0.517
0.1 µM, coculture fibroblast: HMF | 0.826 | 0.746 | 0.702 | 0.694 | 0.64 | 0.618 | 0.592 | 0.579 | 0.581
0.1 µM, coculture fibroblast: HPFa | 0.889 | 0.819 | 0.769 | 0.707 | 0.667 | 0.631 | 0.582 | 0.567 | 0.542
0.1 µM, coculture fibroblast: HUF | 0.823 | 0.731 | 0.736 | 0.638 | 0.586 | 0.571 | 0.548 | 0.556 | 0.561
0.1 µM, coculture fibroblast: Hs27A | 0.859 | 0.8122 | 0.763 | 0.725 | 0.663 | 0.644 | 0.613 | 0.609 | 0.573
0.1 µM, coculture fibroblast: Hs343T | 0.8434 | 0.765 | 0.72779 | 0.719 | 0.656 | 0.643 | 0.629 | 0.626 | 0.653
0.1 µM, coculture fibroblast: WS1 | 0.7872 | 0.703 | 0.673 | 0.573 | 0.514 | 0.494 | 0.466 | 0.462 | 0.463
1 µM, coculture fibroblast: C12385 | 0.805 | 0.714 | 0.655 | 0.566 | 0.5 | 0.467 | 0.441 | 0.427 | 0.423
1 µM, coculture fibroblast: H6013 | 0.832 | 0.807 | 0.769 | 0.74 | 0.72 | 0.712 | 0.699 | 0.694 | 0.674
1 µM, coculture fibroblast: H6019 | 0.788 | 0.708 | 0.677 | 0.583 | 0.534 | 0.5007 | 0.469 | 0.44 | 0.415
1 µM, coculture fibroblast: H6076 | 0.872 | 0.8124 | 0.799 | 0.797 | 0.774 | 0.779 | 0.786 | 0.792 | 0.806
1 µM, coculture fibroblast: H6231 | 0.875 | 0.809 | 0.745 | 0.69 | 0.626 | 0.6 | 0.559 | 0.5335 | 0.526
1 µM, coculture fibroblast: HADF | 0.866 | 0.823 | 0.785 | 0.737 | 0.729 | 0.732 | 0.712 | 0.717 | 0.706
1 µM, coculture fibroblast: HCFa | 0.8613 | 0.803 | 0.7423 | 0.7007 | 0.6511 | 0.6411 | 0.6066 | 0.606 | 0.564
1 µM, coculture fibroblast: HCPF | 0.919 | 0.83 | 0.773 | 0.722 | 0.6591 | 0.6372 | 0.6353 | 0.5913 | 0.5771
1 µM, coculture fibroblast: HHSteC | 0.846 | 0.796 | 0.752 | 0.703 | 0.665 | 0.642 | 0.631 | 0.618 | 0.597
1 µM, coculture fibroblast: HMF | 0.8589 | 0.767 | 0.707 | 0.6663 | 0.6014 | 0.569 | 0.547 | 0.52 | 0.514
1 µM, coculture fibroblast: HPFa | 0.862 | 0.792 | 0.738 | 0.675 | 0.642 | 0.614 | 0.571 | 0.555 | 0.521
1 µM, coculture fibroblast: HUF | 0.838 | 0.713 | 0.6995 | 0.5951 | 0.539 | 0.511 | 0.482 | 0.483 | 0.4834
1 µM, coculture fibroblast: Hs27A | 0.853 | 0.82895 | 0.7791 | 0.7409 | 0.6946 | 0.6766 | 0.642 | 0.6459 | 0.605
1 µM, coculture fibroblast: Hs343T | 0.8738 | 0.771 | 0.724 | 0.686 | 0.62 | 0.598 | 0.581 | 0.568 | 0.578
1 µM, coculture fibroblast: WS1 | 0.802 | 0.705 | 0.6905 | 0.581 | 0.522 | 0.512 | 0.49 | 0.492 | 0.499

Values are relative to the signal before dosing, not to a vehicle control; the signal also falls without drug.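 Labels refer to human fibroblasts, largely primary: uterine (C12385, HUF), lung (H6013), bone (Hs27A), adrenal (HADF), skin (WS1), plus mammary HMF and breast cancer-associated Hs343T. Cancer lines are basal-like or mesenchymal-like triple-negative breast cancer. The paper counts as hits responses shifting over 3x the replicate standard deviation. The tissue of the other fibroblasts is not given here.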
